In paper PMC5296754 one finds binding data, which are given here for one substance.

Amino acid sequences for entries named in this document (tags omitted). A change or cut given only in a name is not applied to a line headed by its entry.
UniProt P13128, whole entry, looked up, stated change not applied: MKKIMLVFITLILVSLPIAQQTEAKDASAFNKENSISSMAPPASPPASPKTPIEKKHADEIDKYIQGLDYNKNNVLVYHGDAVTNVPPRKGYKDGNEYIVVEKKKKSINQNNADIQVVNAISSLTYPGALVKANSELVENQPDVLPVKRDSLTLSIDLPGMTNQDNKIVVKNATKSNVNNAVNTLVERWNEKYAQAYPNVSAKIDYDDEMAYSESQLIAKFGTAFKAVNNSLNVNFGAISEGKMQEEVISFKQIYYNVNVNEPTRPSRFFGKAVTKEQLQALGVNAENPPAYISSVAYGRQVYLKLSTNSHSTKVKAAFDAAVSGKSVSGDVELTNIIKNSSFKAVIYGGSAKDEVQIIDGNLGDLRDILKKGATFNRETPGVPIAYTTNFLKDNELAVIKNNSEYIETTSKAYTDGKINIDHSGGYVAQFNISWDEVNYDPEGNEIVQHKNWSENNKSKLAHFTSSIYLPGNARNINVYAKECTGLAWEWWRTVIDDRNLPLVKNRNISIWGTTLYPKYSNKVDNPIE

Assay [1] concerns the target Listeriolysin O Y406A mutant (Listeria monocytogenes) (UniProt P13128). Briefly: high-speed atomic force microscopy; 500 nM protein added to POPC:Chol 1:1 supported lipid bilayer on mica; 20 mM MES, pH 5.6, 100 mM NaCl, 5 mM MgCl2, room temperature; oligomers on the membrane; both purified.
For assay [2] the target is unchanged. The assay can be described thus: transmission electron microscopy (negative stain); 500 nM protein with POPC:Chol multilamellar vesicles (10 mM lipids), 10 mM MES, 150 mM NaCl, pH 5.5, room temperature; contrasted with 1% uranyl acetate; oligomers on the membrane; both purified.

These are yes or no findings as the source states them, for the method shown. Some entries that bind do so weakly or less than the wild type.

As for “Listeriolysin O Y406A mutant (from UniProt P13128 39-526)”, the binding entry in assay [1] and in assay [2] was “binds” each time.
